Source: ChEMBL document CHEMBL1150928, “A new antitubercular mulinane diterpenoid from Azorella madreporica Clos” (J Nat Prod, 1998)
In brackets after ≈: the same amount, converted by molar mass.

Tested on: Mycobacterium tuberculosis
Assay: Antitubercular activity against Mycobacterium tuberculosis H37Rv ATCC 27294
Type: functional

Work on `CO[C@H]1/C=C/O[C@@]2(C)Oc3c(C)c(O)c4c(O)c(c(/C=N/N5CCN(C)CC5)c(O)c4c3C2=O)NC(=O)/C(C)=C\C=C\[C@H](C)[C@H](O)[C@@H](C)[C@@H](O)[C@@H](C)[C@H](OC(C)=O)[C@@H]1C` [RIFAMPIN] yielded an MIC of 0.125 µg/mL (≈ 0.152 µM).
